# Values quoted from earlier work, collected in patent publication US20230381197A1, “COMPOSITIONS FOR NON-SURGICAL PREVENTION OF BOAR TAINT AND […]” (Insigna Inc., priority 2022, published 2023).
# At least one compound was matched to its structure with a doubt left.
# Test system: Sertoli cells
# Settings: neonatal/immature pigs
compound,measurement,value
CC(C)C(=O)Nc1ccc([N+](=O)[O-])c(C(F)(F)F)c1 [Flutamide],number of Sertoli cells,increased
